Reference: patent US11503826B2, “Low volatility auxin herbicide formulations” (priority 2009, dated 2022)
For at least one compound, name, drawing or mass did not settle the structure.

Format: physicochemical
Description: In a further set of experiments, measurements of dicamba concentration in the gas phase (air) above 38.5 wt % a.e. solutions of various dicamba salts was measured. 5 mL of each sample of dicamba was placed into a 50 mL plastic centrifuge tube with four holes approximately ⅛ in diameter drilled into the tube at the 10 mL line. A 22 mm×30 mm PUF (SKC ct. #226-124) was placed into a glass tube of app. 20 mm diameter with parafilm wrapped around the outside to obtain a snug fit into the top of the centrifuge tube. A hose was connected to the other end of the glass tube leading to a vacuum line. The air flow was regulated to app. 2 L/min using a flow controller (about 0.4 L air/min-mL sample). Air was pulled through the tube at […] for approximately 1 day. Note that the air conditions of flow rate, temperature, pressure and composition (e.g., relative humidity) are not narrowly critical as long as the various samples are analyzed under similar conditions. For instance, air at from about 5° C. to about 40° C., from about 0.5 to about 1.5 bar pressure, from about 0% to about 95% relative humidity, and at a flow rate of from about 0.1 to 10 L/min-mL sample could be suitably used for volatility analysis. The PUF was removed from the glass tube, extracted with 20 mL methanol and the resulting solution analyzed for dicamba concentration by LC-MS. The results are shown in Table 4i below where “wt % a.e.” refers to the dicamba concentration, “μg/mL” refers to the dicamba concentration in the distillate, “μg dicamba” refers to the total dicamba extracted from the PUF by 20 mL methanol, and “ng/L air” and “moles/L air” refer to the dicamba concentration in the gas phase above the solution.

SMILES: NCCO [MEA]
- dicamba: 0.02 µg/mL
- dicamba concentration in gas phase, moles/L air: 2.51 × 10^−13 moles/L air
- dicamba concentration in gas phase, ng/L air: 0.056 ng/L air
- μg dicamba: 0.4 µg
